Measurements reported in PubChem BioAssay AID1259254 (NCATS, 2017).

Purpose: 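Genome-wide screen for genes that prevent DNA re-replication in cancer cells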 (primary screen)
Cell system: human HCT116 colorectal cancer cells
Knock-down reagent: single siRNA against human genes
Duration: 3 days
Read-out: 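Nuclei stained with Hoechst and imaged; cell-cycle phase assigned by DNA content; G2 share scaled per plate, non-targeting siRNA 0%, GMNN siRNA 100%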
Reading the numbers: G2 robust z-score and G2 cells, % of GMNN control: higher = more G2 cells, more excess DNA replication
Call rule: 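An siRNA counts as active if its G2 robust z-score lies at least 5 MADs above the screen median; here such calls match roughly 38% of GMNN control or more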
This is a random part of about 59,000 reagents tested. Over the whole deposit, about 1,550 (2.6%) got an active call. 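G2 share is only a proxy for re-replication; each gene was hit by three separate siRNAs, and active genes were retested.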 A number with no mark means an inactive call. The numbers tell different reagents against one gene apart. Not all columns of the deposit are shown. Reagent sequences are not shown. Not stated in the record: the amount of reagent.

Target gene	reagent	G2 robust z-score	G2 cells, % of GMNN control
OARD1	1	1.56	14
OARD1	2	0.185	4.27
OARD1	3	0.526	6.67
FBLN5	1	-0.355	0.468
FBLN5	2	-0.315	0.755
FBLN5	3	-0.936	-3.62
DVL3	1	0.165	4.13
DVL3	2	1.86	16.1
DVL3	3	0.121	3.82
KLK3	1	0.76	8.31
KLK3	2	3.5	27.6
KLK3	3	-0.614	-1.35
OR56B4	1	-0.609	-1.32
OR56B4	2	-1.07	-4.53
OR56B4	3	3.35	26.6

The list goes on; the last 3 above are carried over.
Target gene	reagent	G2 robust z-score	G2 cells, % of GMNN control
OR56B4	1	-0.609	-1.32
OR56B4	2	-1.07	-4.53
OR56B4	3	3.35	26.6
HECTD2	1	-0.16	1.84
HECTD2	2	0.732	8.12
HECTD2	3	-0.765	-2.41
SKP2	1	-0.132	2.04
SKP2	2	-0.599	-1.24
SKP2	3	-0.834	-2.9
ZNF25	1	1.79	15.5
ZNF25	2	-0.238	1.3
ZNF25	3	-0.33	0.649
IFIT1	1	-0.917	-3.48
IFIT1	2	-0.362	0.418
IFIT1	3	1.27	11.9
NEU2	1	-0.382	0.276
NEU2	2	1.56	13.9
NEU2	3	0.243	4.68
